Results are given in words; binding and its absence hold for the method and conditions named. In cells and extracts the contact can be indirect. Tags and fused reporters may be left off the sequences shown.
Key:
Experiment in all cases: co-IP; HEK 293T cells transiently transfected with tagged constructs (or endogenous partner); lysis in 50 mM Tris-HCl pH 8.0, 150 mM NaCl, 10% glycerol, 1 mM EDTA, 1% DDM or 0.5% NP-40; anti-Flag M2, anti-c-Myc or anti-HA magnetic beads; Western blot; in Figure 6D with or without overexpressed TMEM132A
[1] = substrate: T1, C truncation of T132A-Flag (mouse) (UniProt Q922P8)
T1 sequence: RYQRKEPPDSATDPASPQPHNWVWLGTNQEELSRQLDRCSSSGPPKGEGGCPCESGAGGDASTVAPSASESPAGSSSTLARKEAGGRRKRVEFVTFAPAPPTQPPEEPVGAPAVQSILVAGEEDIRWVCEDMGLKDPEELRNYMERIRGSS

[2] = substrate: T2, SNC construct of T132A-Flag (only the TM domain removed) (mouse) (UniProt Q922P8)
T2 sequence: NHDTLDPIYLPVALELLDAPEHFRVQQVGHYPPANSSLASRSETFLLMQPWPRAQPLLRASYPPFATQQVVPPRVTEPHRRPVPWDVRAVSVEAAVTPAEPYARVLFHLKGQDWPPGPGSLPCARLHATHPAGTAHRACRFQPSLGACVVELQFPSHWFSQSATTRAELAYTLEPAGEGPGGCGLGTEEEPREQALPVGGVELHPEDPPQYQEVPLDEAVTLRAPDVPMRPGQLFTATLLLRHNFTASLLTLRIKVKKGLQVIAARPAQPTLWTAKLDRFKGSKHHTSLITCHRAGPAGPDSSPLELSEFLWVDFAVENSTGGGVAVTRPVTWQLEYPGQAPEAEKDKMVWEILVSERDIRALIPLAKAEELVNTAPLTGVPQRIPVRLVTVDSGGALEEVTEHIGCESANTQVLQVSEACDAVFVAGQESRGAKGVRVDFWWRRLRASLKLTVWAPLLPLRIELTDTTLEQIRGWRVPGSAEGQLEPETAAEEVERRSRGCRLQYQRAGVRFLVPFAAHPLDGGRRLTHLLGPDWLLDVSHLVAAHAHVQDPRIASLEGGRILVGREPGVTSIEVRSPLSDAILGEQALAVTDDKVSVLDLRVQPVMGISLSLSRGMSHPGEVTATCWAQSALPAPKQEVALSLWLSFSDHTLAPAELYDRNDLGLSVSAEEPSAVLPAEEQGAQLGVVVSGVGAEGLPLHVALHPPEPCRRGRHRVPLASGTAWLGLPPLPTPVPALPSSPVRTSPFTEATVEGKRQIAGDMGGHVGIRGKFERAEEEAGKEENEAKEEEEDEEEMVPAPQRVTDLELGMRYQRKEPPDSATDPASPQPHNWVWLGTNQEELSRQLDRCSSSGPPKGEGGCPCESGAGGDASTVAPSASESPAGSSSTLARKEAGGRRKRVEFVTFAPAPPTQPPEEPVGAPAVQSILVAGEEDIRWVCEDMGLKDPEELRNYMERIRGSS

[3] = substrate: T3, SN truncation of T132A-Flag (mouse) (UniProt Q922P8)
T3 sequence: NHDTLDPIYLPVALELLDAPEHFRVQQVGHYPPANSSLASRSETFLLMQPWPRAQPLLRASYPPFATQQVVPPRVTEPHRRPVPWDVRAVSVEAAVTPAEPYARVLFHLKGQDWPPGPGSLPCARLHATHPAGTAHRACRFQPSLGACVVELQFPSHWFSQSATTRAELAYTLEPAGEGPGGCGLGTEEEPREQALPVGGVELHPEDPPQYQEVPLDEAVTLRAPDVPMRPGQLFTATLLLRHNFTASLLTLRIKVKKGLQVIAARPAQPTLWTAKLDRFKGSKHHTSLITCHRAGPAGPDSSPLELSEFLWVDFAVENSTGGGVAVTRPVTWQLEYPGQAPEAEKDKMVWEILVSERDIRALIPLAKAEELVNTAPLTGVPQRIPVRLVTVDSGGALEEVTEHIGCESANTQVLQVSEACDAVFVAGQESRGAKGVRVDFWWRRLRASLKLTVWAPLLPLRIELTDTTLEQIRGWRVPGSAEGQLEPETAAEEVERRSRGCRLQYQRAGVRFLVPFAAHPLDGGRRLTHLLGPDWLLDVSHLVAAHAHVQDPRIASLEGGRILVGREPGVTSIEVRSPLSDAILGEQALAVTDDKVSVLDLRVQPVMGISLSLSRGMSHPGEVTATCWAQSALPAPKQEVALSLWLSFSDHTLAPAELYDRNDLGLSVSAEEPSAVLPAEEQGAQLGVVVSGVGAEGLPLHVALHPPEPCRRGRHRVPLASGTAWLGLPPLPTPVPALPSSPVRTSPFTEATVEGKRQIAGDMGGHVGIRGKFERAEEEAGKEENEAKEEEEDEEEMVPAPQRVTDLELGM

binding [1]: no binding | binding [2]: no binding | binding [3]: no binding
B1: HA-tagged full-length WLS (FL WLS-HA) (protein, UniProt Q6DID7-1 1-541)
chain: MAGAIIENMSTKKLCIVGGILLVFQIVAFLVGGLIAPAPTTAVPYTAIKCVDVRKNHHKTRWLAPWGPNKCDKIRDIEEAIPREIEANDIVFSVHIPLPSMEMSPWFQFMLFILQLDIAFKLNNQIRENAEISMDVSLGYRDDMFSEWTEMAHERVPRKLKCTFTSPKTPEHEGRYYNCDVLPFMEIGSVAHKYYLLNIRLPVNEKKKINVGIGEIKDIRLVGIHQNGGFTKVWFAMKTFLTPSIFIIMVWYWRRITMMSRPPVLLEKVIFALGISMTFINIPVEWFSIGFDWTWMLLFGDIRQGIFYAMLLSFWIIFCGEHMMDQHERNHIAGYWKQVGPIAVGSFCLFIFDMCERGVQLTNPFYSIWTTDVGTELAMAFIIVAGICLCLYFLFLCFMVFQVFRNISGKQSSLPAMSKVRRLHYEGLIFRFKFLMLITLACAAMTVIFFIVSQVSEGHWKWGGVTVQVSSAFFTGIYGMWNLYVFALMFLYAPSHKNYGEDQSNGDLGVHSGEELQLTTTITHVDGPTEIYKLTRKEAQE
